Experimental data reported in PubChem BioAssay AID1347075 (National Center for Advancing Translational Sciences (NCATS), 2019).
Several values for one entry are separate records, joined by “and”; a condition that tells them apart may be missing. Equal entries are not always repeated. Hit rate of the full screen: of about 400,000 compounds, about 5,500 (1.4%) were called active. The inconclusive results got no clear call from the source; some entries with a clear call stand among them for comparison. Calls follow the shape of the dose curve; as a rule, active = well fitted cell-killing curve with a large enough effect; inconclusive = small, poorly fitted or top-dose-only effect, or effect the other way; inactive = flat fitted curve, though single readings scatter. Potencies beside an inconclusive call are fits to weak or partial responses and may not hold up.

Assay: qHTS assay for MDR1-selective chemotherapeutics: Primary screen using the parental adenocarcinoma cell KB-3-1; also: nearly all actives have a fitted effect of over 60% in size
Conditions: KB-3-1 viability, CellTiter-Glo ATP luminescence, 72 h; activity change, negative = cytotoxic: at 46.1 µM (top of the series)
Method in brief: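 Multi-concentration cytotoxicity screen in KB-3-1 cells grown in DMEM lacking phenol red with 10% FBS. After 72 h at 37 °C with compound, ATP-dependent luminescence was recorded.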
% is scaled to controls: 0 for no effect and ±100 for the full control effect; potency is read from the fitted curve at half-maximal effect.

| SMILES | Potency | activity change, negative = cytotoxic |
| --- | --- | --- |
| CCCCCCCN1C(Nc2ccccc2)=NC[C@@H]1Cc1ccccc1 | inconclusive: 20.6 µM [cytotoxic, single point] |  |
| CCOc1ccc(NC(=O)CN(c2ccccc2OCC)S(=O)(=O)c2ccccc2)cc1 | inactive |  |
| COc1ccc(CNC(=O)C2Cc3c(-c4ccccc4Oc4ccccc4)ccnc3O2)cc1OC (centres undefined) | inconclusive: 29.1 µM [cytotoxic, single point] |  |
| Clc1nnc(N/N=C/c2ccccc2)c2ccccc12 | inconclusive: 20.6 µM [cytotoxic, partial curve, poor fit] |  |
| Cc1ccc(-c2csc(NC(=O)/C=C/c3cccs3)n2)cc1C | inconclusive: 20.6 µM [cytotoxic, single point] |  |
| Cc1ccc(CN2C(=O)C(C)Sc3ccc(C#N)cc32)cc1 (centres undefined) | inactive |  |
| Cc1cc(=O)n(Cc2cccc(Br)c2)c2c1c(C)nn2-c1ccccc1 | inactive |  |
| Cc1ccc(Nc2nnc(-c3ccc(C)c(S(=O)(=O)N4CCCCC4)c3)c3ccccc23)cc1 | inconclusive: 16.4 µM [rising, single point] |  |
| Cc1ccc(C(CC(=O)NCC2(c3ccccc3)CCCC2)c2ccccc2)c(O)c1 (centres undefined) | inconclusive: 29.1 µM [cytotoxic, single point] |  |
| CC(C)(C)OC(=O)N1CCC(c2c(C(=O)Nc3ccc4c(c3)OCCO4)cnn2-c2ccc(F)cc2)CC1 | inconclusive: 29.1 µM [cytotoxic, single point] |  |
| O=C(CCSc1nnc(-c2ccncc2)o1)Nc1cccc(Cl)c1 | inactive |  |
| Cc1cccc(-c2nc3c(cnn3-c3ccccc3)c(=O)n2-c2cccc(Cl)c2)c1 | inconclusive: 6.51 µM [cytotoxic, partial curve, poor fit] |  |
| CC(C)(C)c1ccc(C(=O)Nc2nnc(C3=COCCO3)o2)cc1 | inconclusive: 16.4 µM [cytotoxic, single point] |  |
| COc1cccc(C(=O)NCCNC(=O)c2ccc(C)nc2)c1 | inactive |  |
| CC1(C)S/C(=N/N=C/c2ccco2)NC1=O | inactive |  |
| O=C(Cc1ccccc1)N/N=C/c1ccc([N+](=O)[O-])s1 | inconclusive: 32.6 µM [cytotoxic, single point] |  |
| CC(=O)Nc1ccc(N/C=C2/CCCC2=O)cc1 | inconclusive: 6.51 µM [rising, partial curve, poor fit] |  |
| CCN(CC)S(=O)(=O)c1ccc2c(c1)c(=O)c(C(=O)N(C)Cc1ccccc1)cn2C | inactive |  |
| CC1(C(=O)NNC(=S)NCc2ccco2)CC1(Cl)Cl (centres undefined) | inconclusive: 9.2 µM [rising, partial curve, poor fit] |  |
| Cc1oc(-c2ccc(Cl)cc2)nc1CS(=O)CC(=O)NCCCN1CCN(Cc2ccccc2)CC1 (centres undefined) | inconclusive: 29.1 µM [cytotoxic, single point] |  |
| O=C(COC(=O)Cc1c(Cl)cccc1Cl)Nc1ccc2[nH]c(=O)[nH]c2c1 | inconclusive: 29.1 µM [cytotoxic, single point] |  |
| COc1ccc2c(CCNC(=O)/C=C/c3ccc(OC)c(OC)c3)c[nH]c2c1 | inconclusive: 29.1 µM [cytotoxic, single point] |  |
| CC(c1ccccc1)N1CC(C(=O)Nc2ccc(F)cc2)CC1=O (centres undefined) | inactive |  |

| SMILES | Potency | activity change, negative = cytotoxic |
| --- | --- | --- |
| CCn1c(SCC(=O)N2c3ccccc3CCc3ccccc32)nc2c1c(=O)n(C)c(=O)n2C | inactive |  |
| Cc1nn(-c2ccccc2)c(-n2cccc2)c1C(=O)NCc1ccccc1Cl | inconclusive: 23.1 µM [cytotoxic, single point] |  |
| O=c1c(-c2ccc3c(c2)OCCO3)coc2cc(O)cc(O)c12 | inactive |  |
| Cc1cc(/C=N\NC(=O)CC(=O)NC2CCCCC2)c(C)n1-c1ccc(Cl)c(Cl)c1 | inconclusive: 29.1 µM [cytotoxic, single point] |  |
| NC(=O)c1cc([N+](=O)[O-])c(Cl)cc1NCc1ccccn1 | inactive |  |
| Cc1ccccc1-c1nnc(SCC(=O)N(C)C2CCS(=O)(=O)C2)n1C (centres undefined) | inconclusive: 16.4 µM [cytotoxic, single point] |  |
| COc1ccc(-c2nc3ccc(C)cn3c2CC2CCCCC2)cc1OC | inconclusive: 29.1 µM [cytotoxic, partial curve, poor fit] |  |
| COCCn1c(C2CCCCC2)nc2sc3ccccc3c(=O)c2c1=O | inactive |  |
| CNc1nc(-c2ccccn2)nnc1-c1ccccc1 | inconclusive: 35.5 µM [cytotoxic, single point] |  |
| FC(F)(F)c1cnc(Sc2ncn[nH]2)c(Cl)c1 | inactive |  |
| Cc1cccc(C(=O)Nc2ccc(C(=O)/C=C/c3cccs3)cc2)c1 | inconclusive: 29.1 µM [cytotoxic, single point] |  |
| CC(C)(C)NCCC(O)c1cc(C(F)(F)F)nc2c(C(F)(F)F)cccc12 (centres undefined) | inconclusive: 18.4 µM [cytotoxic, single point] |  |
| Cn1c(=O)c2c(ncn2CC(O)CNc2ccc(Br)cc2)n(C)c1=O (centres undefined) | inactive |  |
| CCCOc1ccc(C(F)(F)F)cc1NC(=O)C1CC(=O)N(Cc2ccco2)C1 (centres undefined) | inactive |  |
| Cc1c(N=C2N=C(NC(=O)Nc3ccc(Cl)cc3)c3ccccc32)c(=O)n(-c2ccccc2)n1C | inactive |  |
| COc1ccc(NC(=O)C2CCCN(C(=O)Nc3ccc(F)cc3)C2)cc1OC (centres undefined) | inconclusive: 25.9 µM [rising, single point] |  |
| O=C1c2ccccc2C(=O)C1c1nccc2ccccc12 | inconclusive: 20.6 µM [cytotoxic, partial curve, poor fit] |  |
| COc1ccc(-c2ccc3c(N)c(C(=O)Nc4ccc(C)cc4C)sc3n2)cc1OC | inactive |  |
| N#Cc1sc2nc(C3CC3)cc(-c3ccccc3)c2c1N | inconclusive: 16.4 µM [cytotoxic, partial curve] |  |
| O=C(NCc1cccnc1)c1cc(C2CCCN(C(=O)c3cccc(O)c3)C2)on1 (centres undefined) |  | inconclusive: 0% |
| Cc1cc2n(n1)SC(Nc1cc(Cl)ccc1Cl)N2 (centres undefined) | inconclusive: 25.9 µM [cytotoxic, single point] |  |
| O=C(O)C1CCCCC1C(=O)Nc1ccccc1C(=O)N1CCN(c2ccc(F)cc2)CC1 (centres undefined) | inconclusive: 32.6 µM [rising, single point] |  |
| CC(C)C[C@H](NC(=O)c1[nH]cnc1C(=O)Nc1ccccc1F)C(=O)OC(C)(C)C | inconclusive: 23.1 µM [cytotoxic, single point] |  |

| SMILES | Potency | activity change, negative = cytotoxic |
| --- | --- | --- |
| Cc1c(C(=O)O)sc2nc(-c3cccs3)cc(C(F)(F)F)c12 | inactive |  |
| Cc1ccc2nc(-c3ccccc3)c(Cc3cccc(F)c3)n2c1 | inconclusive: 29.1 µM [cytotoxic, single point] |  |
| O=C1[C@H](Cc2ccccc2)NCC=CC[C@H](c2ccc(Cl)cc2)N1Cc1ccc(Cl)cc1 | inconclusive: 29.1 µM [cytotoxic, single point] |  |
| Cc1sc2ncnc(SC(C)C(=O)N3c4ccccc4Sc4ccccc43)c2c1C (centres undefined) | inconclusive: 29.1 µM [cytotoxic, single point] |  |
| O=C(Oc1ccc2ccc(=O)oc2c1)N1CCOCC1 | inconclusive: 18.4 µM [rising, partial curve] |  |
| O=C(Nc1ccccc1)c1cn2ccccc2n1 | inconclusive: 16.4 µM [cytotoxic, single point] |  |
| O=C(CN1C2=NCCCN2c2ccccc21)c1ccc(Cl)cc1Cl | inconclusive: 32.6 µM [cytotoxic, single point] |  |
| Cc1cc(NC(=O)CCCN2C(=O)/C(=C/c3cccs3)SC2=S)no1 | inconclusive: 14.6 µM [cytotoxic, partial curve, poor fit] |  |
| O=S(=O)(c1ccc(Cl)c(NC(=S)N/N=C/c2ccc(O)cc2)c1)N1CCOCC1 | inconclusive: 18.4 µM [cytotoxic, single point] |  |
| CCN1CCC(NC(=O)c2cc(OC)c(OC)cc2OC)CC1 | inactive |  |
| CCOC(=O)C1C(=O)C=C(c2ccc(Br)cc2)CC1c1ccco1 (centres undefined) | inconclusive: 29.1 µM [cytotoxic, single point] |  |
| Cn1c(C(=O)N2CCCC(C(=O)NCCCSC3CCCCC3)C2)cc2sccc21 (centres undefined) | inactive |  |
| N#CCC(=O)Nc1ccc(C(=O)OC(C(=O)Nc2cc(C(F)(F)F)ccc2Cl)c2ccccc2)cc1 (centres undefined) | inconclusive: 29.1 µM [cytotoxic, single point] |  |
| CC(C)Cc1nc2oc3c(NCCCN4CCOCC4)ncnc3c2c2c1CCC2 | inconclusive: 35.5 µM [cytotoxic, single point] |  |
| Nc1nc2ccccc2cc1C(=O)NCc1ccc(Cl)cc1Cl | inconclusive: 2.31 µM [cytotoxic, full curve, poor fit] |  |
| O=C(CSc1cccc[n+]1[O-])c1cc2ccccc2o1 | active: 18.4 µM |  |
| COc1ccc(-n2nnnc2C(c2cccc3ccccc23)N2CCN(C/C=C/c3ccccc3)CC2)cc1 (centres undefined) | inactive |  |
| Cc1cccc(Nc2c3c(nc4ccccc24)CCC3)c1 | inconclusive: 1.3 µM [cytotoxic, single point] |  |
| CCCCn1c(CNC(=O)c2cccs2)nc2ccccc21 | inconclusive: 29.1 µM [cytotoxic, single point] |  |
| Cc1cc(C)n(CCNC(=O)c2cc(COc3ccc4ncccc4c3)on2)n1 | inconclusive: 10.3 µM [cytotoxic, partial curve] |  |
| CC(C)(C)c1ccc(OCC(=O)Nc2ccc(C(=O)Nc3ccccc3C(=O)O)cc2)cc1 | inactive |  |
| C[C@@H]1[C@H](c2ccccc2)OCCS(=O)(=O)N1Cc1cccc(C(F)(F)F)c1 | inconclusive: 18.4 µM [cytotoxic, single point] |  |
| CC(C)CC1Nc2ncnc(N3CCN(c4ccccn4)CC3)c2N(Cc2ccc(Cl)cc2)C1=O (centres undefined) | inconclusive: 20.6 µM [cytotoxic, single point] and inconclusive: 18.4 µM [cytotoxic, single point] |  |

4 compounds drawn at random from the list so far:

| SMILES | Potency | activity change, negative = cytotoxic |
| --- | --- | --- |
| CC(C)(C)c1ccc(C(=O)Nc2nnc(C3=COCCO3)o2)cc1 | inconclusive: 16.4 µM [cytotoxic, single point] |  |
| O=C1c2ccccc2C(=O)C1c1nccc2ccccc12 | inconclusive: 20.6 µM [cytotoxic, partial curve, poor fit] |  |
| COc1ccc(-c2nc3ccc(C)cn3c2CC2CCCCC2)cc1OC | inconclusive: 29.1 µM [cytotoxic, partial curve, poor fit] |  |
| O=c1c(-c2ccc3c(c2)OCCO3)coc2cc(O)cc(O)c12 | inactive |  |
